# Measured values reported in patent US20260174860A1, “HYBRID COMPOUNDS OF SCLAREOL AND DOXORUBICIN, THEIR SYNTHESIS AND APPLICATION” (INSTITUTE FOR BIOLOGICAL RESEARCH "SINISA STANKOVIC" - …, priority 2023, published 2026).
# Entries after “also recorded” stand apart in the source; their conditions may differ.
# Experiments:
# U87 glioblastoma cells = experiment: Intracellular localization of DOX-derived fluorescence; format: cell-based, human; details: DOX 20 μM 2 h, CON1 and CON2 2, 5, 10 μM 72 h
# U87 cells = experiment: Transmission electron microscopy of cell import; format: cell-based, human; details: 5 μM, 24 h
Compound,localization of DOX-derived fluorescence (U87 glioblastoma cells),cellular import (TEM) (U87 cells)
"COc1cccc2c1C(=O)c1c(O)c3c(c(O)c1C2=O)C[C@@](O)(C(=O)CO)C[C@@H]3O[C@H]1C[C@H](N)[C@H](O)[C@H](C)O1 [DOX, doxorubicin]",inside the nucleus; also recorded: fluorescence in the nucleus,–
"N1-((2S,3S,4S,6R)-3-hydroxy-2-methyl-6-(((1S,3S)-3,5,12-trihydroxy-3-(2-hydroxyacetyl)-10-methoxy-6,11-dioxo-1,2,3,4,6,11-hexahydrotetracen-1-yl)oxy)tetrahydro-2H-pyran-4-yl)-N4-(6-((4-((R,E)-3-hydroxy-5-((1R,2R,4aS,8aS)-2-hydroxy-2,5,5,8a-tetramethyldecahydronaphthalen-1-yl)-3-methylpent-1-en-1-yl)benzyl)amino)hexyl) succinamide [CON2]",near the nuclear membrane; also recorded: perinuclear fluorescence,can penetrate the cancer cells; also recorded: found to enter into the U87 cells
"N1-((25,3S,4S,6R)-3-hydroxy-2-methyl-6-(((1S,3S)-3,5,12-trihydroxy-3-(2-hydroxyacetyl)-10-methoxy-6,11-dioxo-1,2,3,4,6,11-hexahydrotetracen-1-yl)oxy)tetrahydro-2H-pyran-4-yl)-N4-(3-((4-((R,E)-3-hydroxy-5-((1R,2R,4aS,8aS)-2-hydroxy-2,5,5,8a-tetramethyldecahydronaphthalen-1-yl)-3-methylpent-1-en-1-yl)benzyl)amino)propyl) succinamide [CON1]",near the nuclear membrane; also recorded: perinuclear fluorescence,can penetrate the cancer cells; also recorded: found to enter into the U87 cells
